Assay results published in PubChem BioAssay AID2685 (National Center for Advancing Translational Sciences (NCATS), 2010).
“And” between values parts separate entries of the source, which are not always exact repeats. Equal values may be shown once. The list shows a part of the results. Further columns of the screen follow, without active or inactive calls. Most of these compounds were active or inconclusive in the main read-out, so they are no random draw. Potencies come from curve fits of mixed quality, noted in brackets.

Assay: qHTS Assay for Lipid Storage Modulators in Drosophila S3 Cells;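 on cell number change: cells counted by Cell Tracker Red CMTPX staining in the red channel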
Settings: BODIPY lipid droplet fluorescence, 18-24 h; for cell number change: measured here: cell count max response, cells fed with added oleic acid
In short: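 Drosophila S3 cells loaded with oleic acid (400 uM, as added) and compounds at several concentrations; lipid droplets imaged by 488-nm laser-scanning cytometry, 500–530 nm intensity and object ratio to cell channel. Percent activity normalized to 20 uM Triacsin C.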

[1] = measured here: lipid fluorescence (Fed channel) AC50, cells fed with added oleic acid
[2] = measured here: cell number channel AC50, cells fed with added oleic acid

| Structure (SMILES) | cell number change | AC50 [1] | AC50 [2] |
| --- | --- | --- | --- |
| CCN1C(=O)CC(c2ccccc2)CC1=O | 1.98% | 3.66 µM [rising, single point] | – |
| CC(C)(C)NC(=O)c1ccc2c3c(cccc13)CC2 | 5.35% | 6.51 µM [falling, single point] | – |
| Cc1ccc(OCc2cc(C(=O)N(C)CCc3nc4ccccc4[nH]3)no2)cc1C | -14.1% | – | – |
| COc1ccc(SC[C@H](Cc2ccccc2)N2CC[C@@H](C(C)(C)C)CCC2=O)cc1 | -0.245% | 3.66 µM [rising, single point] | – |
| Cc1oc2cc3oc(=O)cc(C)c3cc2c1C | -2.78% | 25.9 µM [falling, partial curve] | – |
| NC(=S)N/N=C/c1ccccc1OCCSc1ccc(Cl)cc1 | -16.1% | 29.1 µM [falling, single point] | – |
| COc1ccc(N(CC(=O)NCCC2=CCCCC2)S(=O)(=O)c2ccccc2)cc1 | -8.58% | 20.6 µM [falling, single point] | – |
| COc1ccc(C(=O)COC(=O)CCN2C(=O)C3CC=CCC3C2=O)c(OC)c1 (stereo not drawn) | 100% | – | 1.64 µM [falling, partial curve] |
| O=c1[nH]cnc2scc(C3COc4ccccc4O3)c12 (stereo not drawn) | -44.4% | 29.1 µM [falling, single point] | 16.4 µM [falling, single point] |
| COc1cccc(OC)c1/C(O)=C(\C#N)c1nc2ccccc2[nH]1 | -9.9% | 2.91 µM [falling, full curve] | – |
| Cc1nn(-c2ccccc2)c(C)c1C(=O)OCC(=O)N1CC(=O)Nc2ccccc21 | 17.2% | 7.31 µM [rising, partial curve] | – |
| COc1ccc(CN2CCNC(=O)C2CC(=O)N(C)Cc2ccon2)c(F)c1 (stereo not drawn) | 25.5% | 3.26 µM [rising, single point] | – |
| C[C@H](N)c1nnc(SCC(=O)N(C)C)o1 | -87.1% | 4.11 µM [falling, full curve] | 4.11 µM [falling, full curve] |
| CCC1(C)CC(=O)N(c2ccc(C(=O)O)c(O)c2)C1=O (stereo not drawn) | -43.4% | 3.66 µM [falling, full curve] | 0.146 µM [falling, full curve] |
| COCCN(C(=O)COC(=O)CCc1ccccc1OC)c1c(N)n(Cc2ccccc2)c(=O)[nH]c1=O | 45.9% | 2.91 µM [falling, partial curve] | 29.1 µM [rising, single point] |
| O=C1c2ccccc2C(=O)c2c(Nc3ccc(CCO)cc3)ccc(O)c21 | -58.6% | 3.26 µM [rising, partial curve] | 16.4 µM [falling, partial curve] |
| CCCC(C)C(=O)OCC(=O)Nc1ccc(Br)cc1 (stereo not drawn) | 17.8% | – | – |
| Nc1nc(SCC(=O)N2CCN(c3ccc(F)cc3)CC2)n[nH]1 | -26.4% | 18.4 µM [falling, single point] | – |
| CC1=Nc2ccc(C)cc2/C1=C/c1c(N)n2oc(C)cc2nc1=O | 41.6% | – | 1.3 µM [rising, partial curve] and 20.6 µM [rising, single point] |
| CC(=O)c1cccc(NC(=O)CSCc2ccccc2)c1 | -14.7% | 18.4 µM [falling, single point] | – |

| Structure (SMILES) | cell number change | AC50 [1] | AC50 [2] |
| --- | --- | --- | --- |
| CC(CCc1ccccc1)NC(=O)COC(=O)C1=COCCO1 (stereo not drawn) | 7.96% | 0.13 µM [falling, full curve, poor fit] | – |
| O=C(O)CCC(=O)NNC(=O)CCC(=O)NCc1ccccc1 | 1.33% | 0.092 µM [falling, full curve, poor fit] | – |
| O=C(Nc1ccc(N2CCOCC2)cc1)c1cc2ccccc2o1 | – | – | 1.3 µM [rising, partial curve] |
| COc1cc(N)c(Cl)cc1Cl | -4.21% | – | 0.164 µM [falling, full curve, poor fit] |
| O=S(=O)(Nc1ccc(Cc2ccncc2)cc1)c1cccs1 | 2.23% | – | – |
| C=C(C)CN(CC)C(=O)CC1C(=O)NCCN1CC(C)(C)C (stereo not drawn) | -26.1% | 16.4 µM [falling, single point] | – |
| COc1cc(NC(=S)NCc2cccs2)cc(OC)c1 | 1.58% | 0.116 µM [rising, full curve] | – |
| CCOC(=O)c1ccc(NC(=O)c2nn(CC)cc2Br)cc1 | -17.3% | – | – |
| N#CC(c1ccc(F)cc1)c1ccc(C(=O)c2ccc(F)cc2)cc1 (stereo not drawn) | 65.3% | 18.4 µM [falling, single point] | 13 µM [rising, partial curve, poor fit] |
| C=C(CCC(=O)c1ccccc1)C(=O)c1ccccc1 | -51.8% | 16.4 µM [falling, partial curve] | 16.4 µM [falling, single point] |
| Cc1ccc(N(CC(=O)NC2CCCCCC2)S(=O)(=O)c2c(C)nn(C)c2C)cc1 | 21.7% | 5.8 µM [rising, full curve] | – |
| O=C(CN1C(=O)NC2(CCCCC2)C1=O)Nc1ccccc1N1CCCCC1 | -12.4% | 0.82 µM [falling, single point] | – |
| Cc1ccc(Nc2c(-c3ccccn3)nc3ccc(C)cn23)cc1 | -67.3% | – | 0.231 µM [falling, full curve] |
| O=C(COC(=O)c1cc(S(=O)(=O)N2CCOCC2)ccc1F)Nc1ccc(Cl)cn1 | -5.26% | 7.31 µM [rising, partial curve, poor fit] | – |
| Cc1ccc(SCC(=O)NCc2ccc(F)cc2)cc1 | -33% | – | 2.06 µM [falling, single point] |
| COc1ccc(CCC(=O)OC(C)C(=O)c2ccc(C)cc2)cc1 (stereo not drawn) | 127% | – | 3.26 µM [rising, partial curve, poor fit] |
| CN1CCN(/C=C2\SC(=S)NC2=O)CC1 | -12.6% | 1.3 µM [falling, full curve, poor fit] | – |
| Fc1ccc(C2CCCN2Cc2nc(Cc3ccccc3)no2)cc1 (stereo not drawn) | 15.6% | 14.6 µM [rising, partial curve] | – |
| COc1ccc(/C(O)=C2/C(=O)C(=O)N(CCCC(=O)O)C2c2ccc(OC)c(OC)c2)cc1 (stereo not drawn) | -14.4% | – | – |
| OC[C@H]1OC(Nc2ccc(N=Nc3ccccc3)cc2)[C@@H](O)[C@@H](O)[C@@H]1O (stereo partly drawn) | 16.4% | 0.326 µM [rising, full curve] | 0.411 µM [rising, full curve] |

Record cards, as listed above.
COc1cc(N)c(Cl)cc1Cl as listed: cell number change: -4.21%; AC50 [2]: 0.164 µM [falling, full curve, poor fit]
COc1ccc(CCC(=O)OC(C)C(=O)c2ccc(C)cc2)cc1 (stereo not drawn) as listed: cell number change: 127%; AC50 [2]: 3.26 µM [rising, partial curve, poor fit]
O=C(CN1C(=O)NC2(CCCCC2)C1=O)Nc1ccccc1N1CCCCC1 as listed: cell number change: -12.4%; AC50 [1]: 0.82 µM [falling, single point]
O=C(COC(=O)c1cc(S(=O)(=O)N2CCOCC2)ccc1F)Nc1ccc(Cl)cn1 as listed: cell number change: -5.26%; AC50 [1]: 7.31 µM [rising, partial curve, poor fit]

The listing continues:

| Structure (SMILES) | cell number change | AC50 [1] | AC50 [2] |
| --- | --- | --- | --- |
| CC(C(=O)N1CCCc2c1c(=O)oc1ccc(O)cc21)N1CCc2ccccc2C1 (stereo not drawn) | -8.48% | 0.366 µM [falling, full curve] | – |
| CCOC(=O)C1=C(C)NC(=S)NC1c1ccc(C)s1 (stereo not drawn) | 9.54% | – | – |
| CCCCCn1c(CN2CCN(C)CC2)nc2c1c(=O)n(C)c(=O)n2C | 33.1% | 7.31 µM [rising, partial curve, poor fit] | – |
| O=c1c(Cc2ccc(F)cc2)c(O)ccn1CCc1ccccn1 | -39.3% | 2 µM [falling, partial curve] | 11.2 µM [falling, partial curve, poor fit] |
| O=C(NC1CC1)c1cc(-c2ccco2)nc2ccccc12 | 15.8% | 6.51 µM [rising, partial curve, poor fit] | – |
| c1cncc(CNc2cccc(-c3nc4ccccc4[nH]3)c2)c1 | – | 0.146 µM [rising, full curve, poor fit] | – |
| CCOC(=O)c1ccc(NC(=O)c2ccc(C)c(S(=O)(=O)N3CCOCC3)c2)cc1 | 59.7% | 1.46 µM [rising, full curve] | 3.26 µM [rising, full curve, poor fit] |
| Cc1ccccc1OCC(=O)OCn1nnc2ccccc2c1=O | 20.2% | 0.461 µM [falling, single point] | 0.411 µM [falling, single point] |
| CC1CCN(C(=O)C2CCN(C(=O)c3cc4sccc4n3Cc3ccc(F)cc3)CC2)CC1 | -45% | 11.6 µM [falling, partial curve] | 32.6 µM [falling, single point] |
| COc1ccc(OC)c(NC(=S)N(CCc2c(C)[nH]c3ccccc23)Cc2cccs2)c1 | 9.04% | 2.59 µM [rising, full curve] | – |
| O=C(Nc1ccc(C(=O)N2CCN(c3ccccn3)CC2)cc1)c1ccc(Br)o1 | 15.8% | 29.1 µM [rising, single point] | – |
| CCN1/C(=C/c2ccc3cc(C)ccc3[n+]2CC)Sc2cc(C)ccc21 | -51.6% | – | 18.4 µM [falling, partial curve, poor fit] |
| CCn1c(CNC(=O)Cc2ccc(OC)cc2)nnc1SCC(=O)c1ccc(Br)cc1 | – | 1.46 µM [rising, partial curve] | 1.64 µM [rising, partial curve] |
| O=C(Nc1ccccn1)c1ccc(Cl)c(S(=O)(=O)N2CCCC2)c1 | 32.9% | – | 14.6 µM [rising, single point] |
| CCn1c(CNc2cccc(Cl)c2)nnc1SCc1ccccc1 | -14.4% | – | – |
| COCCn1c(C)cc2c(c1=O)C(c1ccco1)C(C#N)=C(N)O2 (stereo not drawn) | 111% | 16.4 µM [rising, partial curve] | 8.2 µM [rising, partial curve] |
| O=C(NCC(c1cccs1)N1CCc2ccccc21)c1ccccc1 (stereo not drawn) | 48.5% | – | 9.2 µM [rising, partial curve] |
| CCCOC(=O)c1ccc(O)cc1 | -8.04% | 2.59 µM [falling, single point] | – |
| O=C(Nc1ccc2c(c1)nc1n2CCSC1)c1ccco1 | -19.2% | 0.259 µM [falling, full curve, poor fit] | 0.13 µM [falling, full curve, poor fit] |
